# Laboratory results published in the supplement of paper PMC7666118.
# The chains behind the UniProt entries cited, without tags or fusion partners. Where a name states a change or a piece, a line headed by the entry shows the natural chain unless it says otherwise.
# UniProt Q86X55: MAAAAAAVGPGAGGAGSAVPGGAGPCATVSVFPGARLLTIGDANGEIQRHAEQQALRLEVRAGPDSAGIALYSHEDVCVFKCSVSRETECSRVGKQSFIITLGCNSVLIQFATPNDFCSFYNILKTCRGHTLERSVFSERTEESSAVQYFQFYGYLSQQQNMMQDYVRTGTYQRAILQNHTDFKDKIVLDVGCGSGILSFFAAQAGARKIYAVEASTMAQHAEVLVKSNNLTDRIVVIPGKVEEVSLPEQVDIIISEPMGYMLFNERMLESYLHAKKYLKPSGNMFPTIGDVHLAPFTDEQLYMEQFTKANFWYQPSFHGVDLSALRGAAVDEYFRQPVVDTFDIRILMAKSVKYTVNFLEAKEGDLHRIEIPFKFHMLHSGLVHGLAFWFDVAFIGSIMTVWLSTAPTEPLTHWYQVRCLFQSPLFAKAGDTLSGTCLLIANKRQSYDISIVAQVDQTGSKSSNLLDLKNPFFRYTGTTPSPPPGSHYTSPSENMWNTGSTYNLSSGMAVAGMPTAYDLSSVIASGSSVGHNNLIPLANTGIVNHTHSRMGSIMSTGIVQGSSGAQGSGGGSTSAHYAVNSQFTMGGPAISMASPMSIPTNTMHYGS
# UniProt P27708: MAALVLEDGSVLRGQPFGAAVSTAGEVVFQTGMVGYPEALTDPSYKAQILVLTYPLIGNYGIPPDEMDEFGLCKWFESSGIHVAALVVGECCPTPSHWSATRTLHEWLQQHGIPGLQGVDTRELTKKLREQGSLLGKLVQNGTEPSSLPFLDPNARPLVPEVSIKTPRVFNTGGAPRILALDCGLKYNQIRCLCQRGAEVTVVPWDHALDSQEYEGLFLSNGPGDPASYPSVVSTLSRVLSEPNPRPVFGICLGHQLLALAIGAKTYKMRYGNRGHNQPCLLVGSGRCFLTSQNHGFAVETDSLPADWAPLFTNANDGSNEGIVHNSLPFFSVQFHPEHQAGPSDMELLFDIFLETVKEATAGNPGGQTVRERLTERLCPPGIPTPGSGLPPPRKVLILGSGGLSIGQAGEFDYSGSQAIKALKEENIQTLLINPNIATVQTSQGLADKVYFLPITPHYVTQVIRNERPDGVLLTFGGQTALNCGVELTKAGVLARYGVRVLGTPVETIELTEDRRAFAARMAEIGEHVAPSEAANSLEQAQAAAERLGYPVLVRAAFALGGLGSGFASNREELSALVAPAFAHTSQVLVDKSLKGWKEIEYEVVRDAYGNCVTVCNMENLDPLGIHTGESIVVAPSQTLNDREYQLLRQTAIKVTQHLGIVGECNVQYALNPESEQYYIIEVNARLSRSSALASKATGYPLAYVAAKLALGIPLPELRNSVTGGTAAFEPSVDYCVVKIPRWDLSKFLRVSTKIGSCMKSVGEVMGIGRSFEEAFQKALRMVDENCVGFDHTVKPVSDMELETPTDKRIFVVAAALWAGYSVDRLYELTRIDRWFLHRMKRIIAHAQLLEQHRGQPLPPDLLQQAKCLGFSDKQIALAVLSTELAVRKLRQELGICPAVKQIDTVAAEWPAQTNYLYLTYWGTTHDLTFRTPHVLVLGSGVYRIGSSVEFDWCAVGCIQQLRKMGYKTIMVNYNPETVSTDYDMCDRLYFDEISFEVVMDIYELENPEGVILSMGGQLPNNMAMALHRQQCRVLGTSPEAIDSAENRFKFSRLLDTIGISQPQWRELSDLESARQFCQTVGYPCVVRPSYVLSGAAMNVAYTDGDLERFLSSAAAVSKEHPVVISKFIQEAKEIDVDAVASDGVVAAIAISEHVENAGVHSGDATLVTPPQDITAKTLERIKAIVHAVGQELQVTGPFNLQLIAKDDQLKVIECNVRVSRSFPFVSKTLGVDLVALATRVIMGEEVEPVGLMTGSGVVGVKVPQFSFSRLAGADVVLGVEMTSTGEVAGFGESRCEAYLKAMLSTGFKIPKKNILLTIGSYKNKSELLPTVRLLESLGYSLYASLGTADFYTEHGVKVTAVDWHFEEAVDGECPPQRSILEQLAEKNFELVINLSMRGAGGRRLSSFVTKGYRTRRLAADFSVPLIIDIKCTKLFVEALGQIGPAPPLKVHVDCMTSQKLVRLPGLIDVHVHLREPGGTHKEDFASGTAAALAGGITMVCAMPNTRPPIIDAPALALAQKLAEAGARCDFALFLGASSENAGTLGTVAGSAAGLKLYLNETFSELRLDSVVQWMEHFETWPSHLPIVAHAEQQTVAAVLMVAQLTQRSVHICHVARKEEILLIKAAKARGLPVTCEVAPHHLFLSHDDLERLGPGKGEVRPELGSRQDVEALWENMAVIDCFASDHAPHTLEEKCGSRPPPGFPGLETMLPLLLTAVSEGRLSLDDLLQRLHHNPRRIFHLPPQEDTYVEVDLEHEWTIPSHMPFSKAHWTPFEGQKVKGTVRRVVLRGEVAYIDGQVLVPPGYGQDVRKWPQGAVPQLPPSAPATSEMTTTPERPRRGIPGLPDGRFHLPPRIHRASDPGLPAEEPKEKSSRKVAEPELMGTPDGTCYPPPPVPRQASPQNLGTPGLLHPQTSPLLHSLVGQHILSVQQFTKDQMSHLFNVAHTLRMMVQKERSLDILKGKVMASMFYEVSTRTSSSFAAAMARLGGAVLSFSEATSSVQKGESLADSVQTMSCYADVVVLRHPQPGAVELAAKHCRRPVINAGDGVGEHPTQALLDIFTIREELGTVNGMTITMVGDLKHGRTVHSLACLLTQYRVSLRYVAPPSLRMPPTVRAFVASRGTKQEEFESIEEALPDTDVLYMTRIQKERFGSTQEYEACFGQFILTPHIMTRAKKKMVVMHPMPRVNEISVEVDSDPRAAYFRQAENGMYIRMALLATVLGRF
# UniProt Q6GMV3: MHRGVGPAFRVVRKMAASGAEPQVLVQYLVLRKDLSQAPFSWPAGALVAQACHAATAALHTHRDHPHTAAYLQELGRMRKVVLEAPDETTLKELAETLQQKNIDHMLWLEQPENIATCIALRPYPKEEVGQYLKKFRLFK
# UniProt Q75N03: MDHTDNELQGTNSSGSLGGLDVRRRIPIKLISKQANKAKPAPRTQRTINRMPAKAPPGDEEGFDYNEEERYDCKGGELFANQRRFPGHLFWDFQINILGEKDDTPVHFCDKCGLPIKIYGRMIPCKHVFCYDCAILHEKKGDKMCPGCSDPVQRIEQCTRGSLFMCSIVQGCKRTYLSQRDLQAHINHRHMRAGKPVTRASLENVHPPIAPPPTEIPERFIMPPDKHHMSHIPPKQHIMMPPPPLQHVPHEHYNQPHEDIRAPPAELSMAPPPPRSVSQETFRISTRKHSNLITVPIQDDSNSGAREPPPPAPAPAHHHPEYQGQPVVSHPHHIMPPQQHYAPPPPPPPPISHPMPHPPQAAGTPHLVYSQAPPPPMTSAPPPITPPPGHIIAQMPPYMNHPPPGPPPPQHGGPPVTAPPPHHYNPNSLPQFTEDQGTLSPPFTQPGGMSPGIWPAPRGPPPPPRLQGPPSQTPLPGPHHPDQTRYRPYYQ
# UniProt Q6ZNW5: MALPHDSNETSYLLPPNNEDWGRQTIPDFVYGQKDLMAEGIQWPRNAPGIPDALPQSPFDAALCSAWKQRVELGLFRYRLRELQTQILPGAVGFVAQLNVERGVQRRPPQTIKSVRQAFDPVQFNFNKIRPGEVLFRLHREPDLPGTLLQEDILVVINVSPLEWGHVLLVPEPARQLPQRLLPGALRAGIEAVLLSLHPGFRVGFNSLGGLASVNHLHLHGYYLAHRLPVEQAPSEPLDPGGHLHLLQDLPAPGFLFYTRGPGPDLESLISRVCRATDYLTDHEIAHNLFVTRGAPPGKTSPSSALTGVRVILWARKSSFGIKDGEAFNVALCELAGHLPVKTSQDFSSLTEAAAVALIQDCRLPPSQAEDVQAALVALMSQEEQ
# UniProt Q96GE9: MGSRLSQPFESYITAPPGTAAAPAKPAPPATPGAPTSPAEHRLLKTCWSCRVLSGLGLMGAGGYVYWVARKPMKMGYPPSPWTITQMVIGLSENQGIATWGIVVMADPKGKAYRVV
# UniProt A5PLN9: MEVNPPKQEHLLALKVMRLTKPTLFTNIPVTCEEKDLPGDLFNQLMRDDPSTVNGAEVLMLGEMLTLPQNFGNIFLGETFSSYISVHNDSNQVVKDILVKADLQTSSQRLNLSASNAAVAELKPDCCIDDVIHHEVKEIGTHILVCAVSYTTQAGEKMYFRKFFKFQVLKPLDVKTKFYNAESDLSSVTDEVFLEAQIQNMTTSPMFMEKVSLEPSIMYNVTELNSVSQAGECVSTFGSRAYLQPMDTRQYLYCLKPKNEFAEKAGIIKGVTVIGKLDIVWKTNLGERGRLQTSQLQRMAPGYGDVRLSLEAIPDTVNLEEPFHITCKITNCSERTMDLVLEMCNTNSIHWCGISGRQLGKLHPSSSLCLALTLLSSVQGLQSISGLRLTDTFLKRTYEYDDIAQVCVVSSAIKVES
# UniProt Q2VPK5: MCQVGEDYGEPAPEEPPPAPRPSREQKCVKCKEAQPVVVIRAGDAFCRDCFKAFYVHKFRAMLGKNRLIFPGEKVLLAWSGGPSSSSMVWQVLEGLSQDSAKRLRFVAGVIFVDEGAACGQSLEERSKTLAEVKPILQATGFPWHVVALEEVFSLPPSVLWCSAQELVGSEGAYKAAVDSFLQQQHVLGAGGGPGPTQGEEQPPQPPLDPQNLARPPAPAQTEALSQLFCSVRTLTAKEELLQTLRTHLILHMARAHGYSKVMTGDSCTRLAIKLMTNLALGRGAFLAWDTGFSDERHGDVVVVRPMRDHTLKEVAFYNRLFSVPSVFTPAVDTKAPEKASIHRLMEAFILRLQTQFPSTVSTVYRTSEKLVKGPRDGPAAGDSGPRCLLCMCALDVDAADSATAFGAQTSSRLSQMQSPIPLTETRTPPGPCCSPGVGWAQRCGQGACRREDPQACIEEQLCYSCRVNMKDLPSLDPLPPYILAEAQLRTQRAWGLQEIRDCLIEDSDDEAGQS
# UniProt Q8N884, whole entry: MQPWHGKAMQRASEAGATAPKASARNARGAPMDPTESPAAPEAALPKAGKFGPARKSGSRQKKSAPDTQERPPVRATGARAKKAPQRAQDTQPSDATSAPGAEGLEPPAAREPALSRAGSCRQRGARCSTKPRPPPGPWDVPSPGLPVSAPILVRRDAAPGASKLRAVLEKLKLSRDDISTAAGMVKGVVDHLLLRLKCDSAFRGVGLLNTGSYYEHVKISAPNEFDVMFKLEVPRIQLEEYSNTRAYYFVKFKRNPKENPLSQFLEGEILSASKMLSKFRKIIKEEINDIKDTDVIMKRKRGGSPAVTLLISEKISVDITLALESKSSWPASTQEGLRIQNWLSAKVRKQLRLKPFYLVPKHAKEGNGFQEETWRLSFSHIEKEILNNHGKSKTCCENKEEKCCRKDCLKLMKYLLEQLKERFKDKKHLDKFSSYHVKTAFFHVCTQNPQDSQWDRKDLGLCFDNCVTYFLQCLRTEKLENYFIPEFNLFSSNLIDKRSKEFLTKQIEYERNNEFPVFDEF
# UniProt Q6P1X6: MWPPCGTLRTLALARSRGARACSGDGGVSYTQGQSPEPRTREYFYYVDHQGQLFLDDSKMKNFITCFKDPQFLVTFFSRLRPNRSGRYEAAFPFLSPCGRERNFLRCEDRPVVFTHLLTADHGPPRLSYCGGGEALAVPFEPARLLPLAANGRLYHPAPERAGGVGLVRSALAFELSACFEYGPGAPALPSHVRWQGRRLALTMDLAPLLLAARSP
# UniProt Q5XKP0: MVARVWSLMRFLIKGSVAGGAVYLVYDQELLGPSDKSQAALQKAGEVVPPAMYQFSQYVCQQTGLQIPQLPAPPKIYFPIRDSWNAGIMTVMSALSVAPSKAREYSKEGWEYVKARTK
# UniProt Q9NXH8: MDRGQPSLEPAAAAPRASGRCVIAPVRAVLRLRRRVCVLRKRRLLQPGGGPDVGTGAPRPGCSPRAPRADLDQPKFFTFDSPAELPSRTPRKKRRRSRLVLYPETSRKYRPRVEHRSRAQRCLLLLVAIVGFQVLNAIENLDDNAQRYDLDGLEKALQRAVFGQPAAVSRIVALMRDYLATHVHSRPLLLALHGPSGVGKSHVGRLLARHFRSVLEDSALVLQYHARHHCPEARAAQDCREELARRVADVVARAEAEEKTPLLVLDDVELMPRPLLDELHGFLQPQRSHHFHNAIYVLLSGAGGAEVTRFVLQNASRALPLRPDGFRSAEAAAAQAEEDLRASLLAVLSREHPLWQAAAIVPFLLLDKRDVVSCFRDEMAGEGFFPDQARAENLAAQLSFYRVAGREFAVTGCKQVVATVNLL
# UniProt Q9Y2V2: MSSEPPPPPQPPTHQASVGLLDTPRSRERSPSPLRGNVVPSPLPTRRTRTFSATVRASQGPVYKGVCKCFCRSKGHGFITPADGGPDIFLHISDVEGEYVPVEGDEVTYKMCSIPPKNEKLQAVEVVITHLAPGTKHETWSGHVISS
# UniProt Q9Y3Y2: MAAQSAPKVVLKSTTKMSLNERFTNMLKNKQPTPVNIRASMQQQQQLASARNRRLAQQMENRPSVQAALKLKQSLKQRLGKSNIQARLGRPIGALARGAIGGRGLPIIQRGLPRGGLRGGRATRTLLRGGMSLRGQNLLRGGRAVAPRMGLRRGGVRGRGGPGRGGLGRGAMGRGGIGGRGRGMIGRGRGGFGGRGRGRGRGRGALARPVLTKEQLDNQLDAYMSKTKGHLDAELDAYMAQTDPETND
# This is one part of the list.
# Compound: COc1ccc(Cn2ccc3ccc(C(=O)NO)cc32)cc1
# Test: dose-dependent thermal stabilisation call (2D-TPP, DLPTP, 10% FDR) (binary (1 = stabilised)); higher = stabilised by the compound
# Settings: system: HL-60 intact cells; concentration range 0.04-10 µM
row,Target,dose-dependent thermal stabilisation call
1,C2ORF34 (UniProt Q7Z624),inactive: 0
2,C14ORF102 (UniProt Q9H7Z3),inactive: 0
3,CARM1 (UniProt Q86X55),inactive: 0
4,C1ORF112 (UniProt Q9NSG2),inactive: 0
5,CAMSAP1 (UniProt Q5T5Y3),inactive: 0
6,CASP2 (UniProt P42575),inactive: 0
7,C13ORF3 (UniProt Q8IX90),inactive: 0
8,CAD (UniProt P27708),inactive: 0
9,C2ORF79 (UniProt Q6GMV3),inactive: 0
10,CBX8 (UniProt Q9HC52),inactive: 0
11,C14ORF179 (UniProt Q96FT9),inactive: 0
12,CC2D1B (UniProt Q5T0F9),inactive: 0
13,C1ORF151 (UniProt Q5TGZ0),inactive: 0
14,CBLL1 (UniProt Q75N03),inactive: 0
15,C2ORF47 (UniProt Q8WWC4),inactive: 0
16,C21ORF45 (UniProt Q9NYP9),inactive: 0
17,C6ORF134 (UniProt Q5SQI0),inactive: 0
18,C15ORF58 (UniProt Q6ZNW5),inactive: 0
19,C9ORF123 (UniProt Q96GE9),inactive: 0

# As a working copy, part of the list above:
row,Target,dose-dependent thermal stabilisation call
8,CAD (UniProt P27708),inactive: 0
9,C2ORF79 (UniProt Q6GMV3),inactive: 0
10,CBX8 (UniProt Q9HC52),inactive: 0
11,C14ORF179 (UniProt Q96FT9),inactive: 0
12,CC2D1B (UniProt Q5T0F9),inactive: 0
13,C1ORF151 (UniProt Q5TGZ0),inactive: 0
14,CBLL1 (UniProt Q75N03),inactive: 0

# Remaining list, next part.

row,Target,dose-dependent thermal stabilisation call
1,C1ORF57 (UniProt Q9BSD7),inactive: 0
2,C5ORF44 (UniProt A5PLN9),inactive: 0
3,C16ORF84 (UniProt Q2VPK5),inactive: 0
4,C6ORF150 (UniProt Q8N884),inactive: 0
5,C8ORF82 (UniProt Q6P1X6),inactive: 0
6,C6ORF130 (UniProt Q9Y530),active: 1
7,C2ORF56 (UniProt Q7L592),inactive: 0
8,CALU (UniProt O43852),inactive: 0
9,CAPN1 (UniProt P07384),inactive: 0
10,C19ORF70 (UniProt Q5XKP0),inactive: 0
11,C7ORF42 (UniProt Q9NWD8),inactive: 0
12,C9ORF167 (UniProt Q9NXH8),inactive: 0
13,CARHSP1 (UniProt Q9Y2V2),inactive: 0
14,C1ORF131 (UniProt Q8NDD1),inactive: 0
15,C1ORF77 (UniProt Q9Y3Y2),inactive: 0
16,CA8 (UniProt P35219),inactive: 0
17,CBX5 (UniProt P45973),inactive: 0
18,CA2 (UniProt P00918),inactive: 0
19,C3ORF75 (UniProt Q0PNE2),inactive: 0
